Data as given in publication PMC12208836.
Results are given in words; binding and its absence hold for the method and conditions named. Binding seen in cells or lysates may run through a third protein. Some binding calls cover weakened binding; strength is not graded here.

Sequences of proteins named here, by UniProt entry; tags and fusion partners are left off.
UniProt O95235: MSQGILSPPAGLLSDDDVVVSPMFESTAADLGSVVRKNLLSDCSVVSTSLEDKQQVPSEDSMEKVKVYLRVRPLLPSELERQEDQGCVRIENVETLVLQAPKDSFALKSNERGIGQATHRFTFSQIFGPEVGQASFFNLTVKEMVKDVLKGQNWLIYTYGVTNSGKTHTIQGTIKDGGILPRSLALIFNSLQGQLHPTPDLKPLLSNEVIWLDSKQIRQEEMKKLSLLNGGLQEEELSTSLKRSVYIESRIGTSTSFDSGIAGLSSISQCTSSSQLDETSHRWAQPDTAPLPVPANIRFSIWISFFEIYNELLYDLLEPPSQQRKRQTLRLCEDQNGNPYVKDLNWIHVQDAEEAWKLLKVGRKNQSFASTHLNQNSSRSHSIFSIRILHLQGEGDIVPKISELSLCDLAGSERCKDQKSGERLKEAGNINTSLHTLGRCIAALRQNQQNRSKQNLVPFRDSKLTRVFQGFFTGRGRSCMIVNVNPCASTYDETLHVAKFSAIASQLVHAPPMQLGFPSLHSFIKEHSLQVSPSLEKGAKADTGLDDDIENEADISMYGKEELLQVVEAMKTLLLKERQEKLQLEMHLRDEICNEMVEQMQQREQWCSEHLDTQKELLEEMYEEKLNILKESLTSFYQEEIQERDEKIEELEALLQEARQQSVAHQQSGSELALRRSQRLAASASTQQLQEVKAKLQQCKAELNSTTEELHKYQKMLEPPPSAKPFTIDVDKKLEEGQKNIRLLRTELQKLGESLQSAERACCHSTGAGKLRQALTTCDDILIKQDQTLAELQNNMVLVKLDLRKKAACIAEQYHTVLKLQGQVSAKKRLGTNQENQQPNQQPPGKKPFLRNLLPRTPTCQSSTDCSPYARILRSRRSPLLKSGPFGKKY

Biological target: T1, DEP domain containing 1 (DEPDC1) (human (endogenous in liposarcoma cells)) (UniProt Q5TB30)
T1 sequence: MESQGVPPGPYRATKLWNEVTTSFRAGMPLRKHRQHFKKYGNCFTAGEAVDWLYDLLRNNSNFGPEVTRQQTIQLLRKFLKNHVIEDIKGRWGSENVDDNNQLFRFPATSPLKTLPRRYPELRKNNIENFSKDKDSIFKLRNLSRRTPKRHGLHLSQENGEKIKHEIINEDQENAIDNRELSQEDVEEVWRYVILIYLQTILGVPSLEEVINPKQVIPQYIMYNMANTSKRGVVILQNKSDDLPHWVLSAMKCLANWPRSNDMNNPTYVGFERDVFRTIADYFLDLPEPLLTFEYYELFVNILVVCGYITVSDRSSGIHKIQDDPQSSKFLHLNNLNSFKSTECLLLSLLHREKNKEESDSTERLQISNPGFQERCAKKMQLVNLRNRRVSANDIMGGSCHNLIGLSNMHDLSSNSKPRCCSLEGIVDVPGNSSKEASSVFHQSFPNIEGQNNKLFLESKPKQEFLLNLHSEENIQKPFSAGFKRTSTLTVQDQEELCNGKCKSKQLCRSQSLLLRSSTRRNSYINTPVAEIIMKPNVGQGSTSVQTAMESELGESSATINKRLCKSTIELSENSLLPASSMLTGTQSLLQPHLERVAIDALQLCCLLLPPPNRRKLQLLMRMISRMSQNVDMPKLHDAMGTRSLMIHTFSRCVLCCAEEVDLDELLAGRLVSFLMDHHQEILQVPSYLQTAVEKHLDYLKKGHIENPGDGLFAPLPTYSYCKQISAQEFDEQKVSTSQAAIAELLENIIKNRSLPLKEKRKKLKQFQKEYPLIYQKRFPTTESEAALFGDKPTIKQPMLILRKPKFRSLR
Assay: co-IP; cells supernatant of liposarcoma cells bound to anti-DEPDC1 antibody (abcam, ab197246) or normal rabbit IgG on a rotating shaker at 4°C; kit (Absin); washed with IP washing buffer; KIF20A identified in the precipitate

For “Kinesin family member 20A (KIF20A) (from UniProt O95235 1-890)”, the binding was “binds”.
